Positions count from the first letter of the chain named. Results are given in words; binding and its absence hold for the method and conditions named. Binding seen in cells or lysates may run through a third protein. Some results given as binding are weak or reduced against the parent protein; the word gives no strength.
Experiments:
FLAP(Y112A) (human) [1] = biological target: T1, FLAP(Y112A) (human) (UniProt P20292); test: proximity ligation; Duolink PLA in situ in HEK293 cells co-expressing 5-LOX and FLAP mutants; 2.5 μM A23187 at 37 °C, the 10 min time point only
T1 sequence: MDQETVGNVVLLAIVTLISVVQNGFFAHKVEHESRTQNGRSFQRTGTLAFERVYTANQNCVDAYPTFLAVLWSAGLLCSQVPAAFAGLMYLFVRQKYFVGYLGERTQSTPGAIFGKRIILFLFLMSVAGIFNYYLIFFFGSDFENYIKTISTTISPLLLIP

FLAP(I119A) (human) [2] = biological target: T2, FLAP(I119A) (human) (UniProt P20292); test: as above
T2 sequence: T1 sequence with A112Y, I119A

[3] = biological target: T3, 5-LOX-activating protein, wild type (human) (UniProt P20292); test: proximity ligation; Duolink PLA in situ in unstimulated HEK293 cells expressing wildtype 5-LOX and FLAP (no A23187)
T3 sequence: T1 sequence with A112Y

FLAP(A27L) (human) = biological target: T4, FLAP(A27L) (human) (UniProt P20292); test: proximity ligation; Duolink PLA in situ in fixed, permeabilised HEK293 cells stably co-expressing 5-LOX and FLAP (wildtype or mutants); stimulated with 2.5 μM A23187 at 37 °C for 10 or 30 min; mouse anti-5-LOX and rabbit anti-FLAP; distance less than 40 nm
T4 sequence: T1 sequence with A27L, A112Y

FLAP(S41D) = biological target: T5, FLAP(S41D) (human, UniProt P20292 1-161, S41D); test: as above
T5 sequence (looked up): T1 sequence with S41D, A112Y

[4] = biological target: T3, 5-LOX-activating protein, wild type (human); test: as above
FLAP(S108A) (human) = biological target: T6, FLAP(S108A) (human) (UniProt P20292); test: as above
T6 sequence: T1 sequence with S108A, A112Y

FLAP(S108D) = biological target: T7, FLAP(S108D) (human, UniProt P20292 1-161, S108D); test: as above
T7 sequence (looked up): T1 sequence with S108D, A112Y

FLAP(S41A) (human) = biological target: T8, FLAP(S41A) (human) (UniProt P20292); test: as above
T8 sequence: T1 sequence with S41A, A112Y

FLAP(T45C) (human) = biological target: T9, FLAP(T45C) (human) (UniProt P20292); test: as above
T9 sequence: T1 sequence with T45C, A112Y

FLAP(T66A) (human) = biological target: T10, FLAP(T66A) (human) (UniProt P20292); test: as above
T10 sequence: T1 sequence with T66A, A112Y

FLAP(Y112A) (human) [5] = biological target: T1, FLAP(Y112A) (human); test: as above
FLAP(I119A) (human) [6] = biological target: T2, FLAP(I119A) (human); test: as above
FLAP(T109C) = biological target: T11, FLAP(T109C) (human, UniProt P20292 1-161, T109C); test: as above
T11 sequence (looked up): T1 sequence with T109C, A112Y

B1: 5-lipoxygenase (enzyme, human, UniProt P09917 1-674, looked up)
chain: MPSYTVTVATGSQWFAGTDDYIYLSLVGSAGCSEKHLLDKPFYNDFERGAVDSYDVTVDEELGEIQLVRIEKRKYWLNDDWYLKYITLKTPHGDYIEFPCYRWITGDVEVVLRDGRAKLARDDQIHILKQHRRKELETRQKQYRWMEWNPGFPLSIDAKCHKDLPRDIQFDSEKGVDFVLNYSKAMENLFINRFMHMFQSSWNDFADFEKIFVKISNTISERVMNHWQEDLMFGYQFLNGCNPVLIRRCTELPEKLPVTTEMVECSLERQLSLEQEVQQGNIFIVDFELLDGIDANKTDPCTLQFLAAPICLLYKNLANKIVPIAIQLNQIPGDENPIFLPSDAKYDWLLAKIWVRSSDFHVHQTITHLLRTHLVSEVFGIAMYRQLPAVHPIFKLLVAHVRFTIAINTKAREQLICECGLFDKANATGGGGHVQMVQRAMKDLTYASLCFPEAIKARGMESKEDIPYYFYRDDGLLVWEAIRTFTAEVVDIYYEGDQVVEEDPELQDFVNDVYVYGMRGRKSSGFPKSVKSREQLSEYLTVVIFTASAQHAAVNFGQYDWCSWIPNAPPTMRAPPPTAKGVVTIEQIVDTLPDRGRSCWHLGAVWALSQFQENELFLGMYPEEHFIEKPVKEAMARFRKNLEAIVSVIAERNKKKQLPYYYLSPDRIPNSVAI
binding (FLAP(Y112A) (human) [1]): no binding (condition: 10 min of stimulation) | binding (FLAP(I119A) (human) [2]): no binding (condition: 10 min of stimulation) | binding [3]: no binding (condition: unstimulated cells (no A23187)) | binding (FLAP(A27L) (human)): binds | binding (FLAP(S41D)): binds | binding [4]: binds | binding (FLAP(S108A) (human)): binds | binding (FLAP(S108D)): no binding | binding (FLAP(S41A) (human)): binds | binding (FLAP(T45C) (human)): binds | binding (FLAP(T66A) (human)): binds | binding (FLAP(Y112A) (human) [5]): binds | binding (FLAP(I119A) (human) [6]): binds | binding (FLAP(T109C)): binds
